Results on 3 substances are retold here after publication PMC6929984.

The chains behind the UniProt entries cited, without tags or fusion partners. Where a name states a change or a piece, a line headed by the entry shows the natural chain unless it says otherwise.
UniProt P43694: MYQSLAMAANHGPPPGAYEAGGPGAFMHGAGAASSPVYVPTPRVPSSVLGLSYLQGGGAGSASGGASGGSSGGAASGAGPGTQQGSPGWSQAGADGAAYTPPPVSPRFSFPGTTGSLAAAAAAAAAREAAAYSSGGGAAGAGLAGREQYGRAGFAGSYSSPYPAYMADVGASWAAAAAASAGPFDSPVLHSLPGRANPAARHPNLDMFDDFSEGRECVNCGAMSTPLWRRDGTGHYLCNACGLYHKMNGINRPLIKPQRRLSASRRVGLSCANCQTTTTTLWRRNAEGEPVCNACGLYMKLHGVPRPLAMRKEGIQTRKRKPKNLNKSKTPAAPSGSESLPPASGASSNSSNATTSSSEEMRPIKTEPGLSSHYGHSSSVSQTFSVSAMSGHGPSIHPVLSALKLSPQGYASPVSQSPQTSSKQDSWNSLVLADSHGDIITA
UniProt P35222: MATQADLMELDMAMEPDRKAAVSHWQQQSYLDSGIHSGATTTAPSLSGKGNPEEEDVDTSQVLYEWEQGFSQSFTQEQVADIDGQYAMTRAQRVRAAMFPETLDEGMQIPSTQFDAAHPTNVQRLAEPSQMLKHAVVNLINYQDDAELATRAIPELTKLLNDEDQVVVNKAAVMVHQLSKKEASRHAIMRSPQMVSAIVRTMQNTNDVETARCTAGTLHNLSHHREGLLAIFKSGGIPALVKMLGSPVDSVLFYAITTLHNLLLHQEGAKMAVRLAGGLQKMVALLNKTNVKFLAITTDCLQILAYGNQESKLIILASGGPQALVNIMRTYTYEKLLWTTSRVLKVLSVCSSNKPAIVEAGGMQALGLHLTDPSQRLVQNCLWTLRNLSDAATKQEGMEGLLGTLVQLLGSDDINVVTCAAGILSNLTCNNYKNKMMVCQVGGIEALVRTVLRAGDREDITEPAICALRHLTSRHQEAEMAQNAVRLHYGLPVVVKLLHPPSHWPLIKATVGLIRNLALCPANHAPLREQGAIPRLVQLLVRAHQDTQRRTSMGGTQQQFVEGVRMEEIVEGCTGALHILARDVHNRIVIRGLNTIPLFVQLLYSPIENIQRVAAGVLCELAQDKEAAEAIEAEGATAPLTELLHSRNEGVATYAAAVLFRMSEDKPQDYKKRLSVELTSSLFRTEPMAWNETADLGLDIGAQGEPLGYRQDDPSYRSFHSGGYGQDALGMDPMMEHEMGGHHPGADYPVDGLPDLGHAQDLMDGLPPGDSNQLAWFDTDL
UniProt P36402: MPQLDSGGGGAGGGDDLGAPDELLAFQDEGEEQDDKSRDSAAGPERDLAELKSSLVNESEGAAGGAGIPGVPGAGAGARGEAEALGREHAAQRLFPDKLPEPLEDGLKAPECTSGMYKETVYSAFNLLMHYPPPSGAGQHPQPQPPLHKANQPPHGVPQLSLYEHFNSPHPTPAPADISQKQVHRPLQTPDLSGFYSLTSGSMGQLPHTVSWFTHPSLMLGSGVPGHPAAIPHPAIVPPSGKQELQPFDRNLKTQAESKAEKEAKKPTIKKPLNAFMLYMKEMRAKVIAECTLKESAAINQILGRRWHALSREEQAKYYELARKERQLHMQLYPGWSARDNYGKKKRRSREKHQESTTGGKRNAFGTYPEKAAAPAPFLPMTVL

In assay [1] the target is Myc tagged GATA4 deleted of ZF1 (human) (UniProt P43694). Briefly: co-IP; HEK293 cells (2×10^6) transfected with the indicated Myc- and FLAG-tagged plasmids (5 mg each (so in the source)); NP-40 lysis buffer; immunoblot (Figure 3E, 3F).
For assay [2], the target named is FLAG tagged GATA4, C4A mutant of ZF1 (human) (UniProt P43694). Described as above.
Assay [3] addresses β-catenin-N-luciferase (human) (UniProt P35222). The experiment in a line: split reporter; split firefly luciferase (the paper: bimolecular fluorescence complementation assay): β-catenin-N-luciferase (0.1 mg as printed) with LEF1-C-luciferase or TCF1-C-luciferase, with or without GATA4; luciferase read 24 hours after transfection; HEK 293 cells in the legend, HepG2 in the text.

No constants are given. Whether binding was seen depends on the method and setting. In cells and extracts the contact can be indirect. Binding calls can cover weak binding; strength is not graded here.

In the case of “FLAG tagged β-catenin (from UniProt P35222 1-781)”, the binding entry in assay [1] is on record as “binds”.
Consider “Myc tagged β-catenin (from UniProt P35222 1-781)”, for which, in assay [2], the binding entry is “binds”.
On to TCF1-C-luciferase (from UniProt P36402), for which, in assay [3], the binding result is given as “binds”.
